# Measurements taken from PMC4387661.
# By UniProt entry, the sequences of proteins in these tests, tags left out. Where a name states a change or a piece, a line headed by the entry shows the natural chain unless it says otherwise.
# UniProt Q60932: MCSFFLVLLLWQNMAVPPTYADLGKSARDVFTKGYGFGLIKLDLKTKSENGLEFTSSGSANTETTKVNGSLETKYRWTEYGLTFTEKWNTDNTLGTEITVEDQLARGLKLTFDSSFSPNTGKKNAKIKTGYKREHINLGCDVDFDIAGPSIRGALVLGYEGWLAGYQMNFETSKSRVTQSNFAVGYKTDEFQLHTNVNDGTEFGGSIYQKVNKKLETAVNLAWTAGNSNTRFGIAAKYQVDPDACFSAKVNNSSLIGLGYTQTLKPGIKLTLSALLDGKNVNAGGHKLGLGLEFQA
# T1: activating transcription factor 2 (ATF2) (mouse (endogenous in B16F10)) (UniProt P16951)
# T1 sequence: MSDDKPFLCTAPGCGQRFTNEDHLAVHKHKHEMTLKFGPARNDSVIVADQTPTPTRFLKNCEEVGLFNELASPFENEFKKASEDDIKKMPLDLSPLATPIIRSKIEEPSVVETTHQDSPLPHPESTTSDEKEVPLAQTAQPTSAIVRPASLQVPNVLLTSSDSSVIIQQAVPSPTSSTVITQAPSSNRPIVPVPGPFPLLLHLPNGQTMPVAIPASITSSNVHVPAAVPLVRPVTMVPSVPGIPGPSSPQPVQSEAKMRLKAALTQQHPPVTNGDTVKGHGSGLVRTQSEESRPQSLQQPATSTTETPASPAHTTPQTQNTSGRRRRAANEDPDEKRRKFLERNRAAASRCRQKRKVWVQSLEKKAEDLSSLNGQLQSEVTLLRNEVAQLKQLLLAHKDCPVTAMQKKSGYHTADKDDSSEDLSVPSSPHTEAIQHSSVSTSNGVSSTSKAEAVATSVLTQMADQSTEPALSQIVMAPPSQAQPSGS
# Tests used:
# [1] = biological target: T1, activating transcription factor 2 (ATF2) (mouse (endogenous in B16F10)); assay: co-IP; ATF2 immunoprecipitated from B16F10 cells stably transfected with HK1 shRNA or VDAC1 shRNA, basal and after PTX; immunoblot for HK1 and VDAC1
# [2] = biological target: voltage-dependent anion channel-1 (VDAC1) (mouse (endogenous in B16F10)) (UniProt Q60932); assay: co-IP; endogenous VDAC1 immunoprecipitated from B16F10 cells that were crosslinked and lysed, prior to and after PTX; cells stably transfected with ATF2 shRNA or ATF2 T52A; immunoblot for ATF2 and HK1
binding [1],binding [2],Molecule
binds,,voltage-dependent anion channel-1 (VDAC1) (from UniProt Q60932)
binds,binds,hexokinase-1 (HK1) (from UniProt P17710-3) (enzyme)
,binds,"activating transcription factor 2 (ATF2) (protein, UniProt P16951 1-487) MSDDKPFLCTAPGCGQRFTNEDHLAVHKHKHEMTLKFGPARNDSVIVADQTPTPTRFLKNCEEVGLFNELASPFENEFKKASEDDIKKMPLDLSPLATPIIRSKIEEPSVVETTHQDSPLPHPESTTSDEKEVPLAQTAQPTSAIVRPASLQVPNVLLTSSDSSVIIQQAVPSPTSSTVITQAPSSNRPIVPVPGPFPLLLHLPNGQTMPVAIPASITSSNVHVPAAVPLVRPVTMVPSVPGIPGPSSPQPVQSEAKMRLKAALTQQHPPVTNGDTVKGHGSGLVRTQSEESRPQSLQQPATSTTETPASPAHTTPQTQNTSGRRRRAANEDPDEKRRKFLERNRAAASRCRQKRKVWVQSLEKKAEDLSSLNGQLQSEVTLLRNEVAQLKQLLLAHKDCPVTAMQKKSGYHTADKDDSSEDLSVPSSPHTEAIQHSSVSTSNGVSSTSKAEAVATSVLTQMADQSTEPALSQIVMAPPSQAQPSGS"

# No constants are given. Whether binding was seen depends on the method and setting. Binding seen in cells or lysates may run through a third protein. Binding calls can cover weak binding; strength is not graded here.
